Results are given in words; binding and its absence hold for the method and conditions named. Binding seen in cells or lysates may run through a third protein. Some binding calls cover weakened binding; strength is not graded here.
Target: β-catenin (CTNNB1) (human (endogenous in MCF-7)) (UniProt P35222)
Assay: co-IP; MCF-7 cell lysate (cell lysis buffer for Western and IP); CTNNB1 antibody on Protein A/G magnetic beads, incubated with lysate overnight at 4 °C; Western blotting; IgG as negative control

Chains of the proteins cited; added tags and fusions are not shown. Residues count along the entry.
UniProt P35222: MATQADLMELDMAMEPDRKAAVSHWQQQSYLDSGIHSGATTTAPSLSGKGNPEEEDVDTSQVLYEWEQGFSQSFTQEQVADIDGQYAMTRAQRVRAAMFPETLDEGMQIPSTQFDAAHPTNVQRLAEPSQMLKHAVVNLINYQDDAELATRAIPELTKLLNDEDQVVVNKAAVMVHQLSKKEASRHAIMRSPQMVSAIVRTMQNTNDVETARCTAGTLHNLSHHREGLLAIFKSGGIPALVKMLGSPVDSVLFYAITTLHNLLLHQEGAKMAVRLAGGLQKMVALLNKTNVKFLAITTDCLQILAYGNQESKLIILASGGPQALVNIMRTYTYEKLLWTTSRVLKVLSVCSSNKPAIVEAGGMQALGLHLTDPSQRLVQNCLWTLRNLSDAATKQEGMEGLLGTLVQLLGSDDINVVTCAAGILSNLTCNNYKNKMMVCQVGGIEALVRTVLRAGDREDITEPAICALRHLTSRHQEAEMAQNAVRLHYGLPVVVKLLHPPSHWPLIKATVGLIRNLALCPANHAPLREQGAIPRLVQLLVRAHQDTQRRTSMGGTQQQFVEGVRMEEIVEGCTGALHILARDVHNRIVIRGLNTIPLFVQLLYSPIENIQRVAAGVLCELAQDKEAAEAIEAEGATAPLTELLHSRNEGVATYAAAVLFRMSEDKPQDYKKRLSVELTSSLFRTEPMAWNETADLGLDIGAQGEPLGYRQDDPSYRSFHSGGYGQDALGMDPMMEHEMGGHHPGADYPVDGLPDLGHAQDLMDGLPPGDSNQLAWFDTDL
UniProt Q14517, residues 22-4588: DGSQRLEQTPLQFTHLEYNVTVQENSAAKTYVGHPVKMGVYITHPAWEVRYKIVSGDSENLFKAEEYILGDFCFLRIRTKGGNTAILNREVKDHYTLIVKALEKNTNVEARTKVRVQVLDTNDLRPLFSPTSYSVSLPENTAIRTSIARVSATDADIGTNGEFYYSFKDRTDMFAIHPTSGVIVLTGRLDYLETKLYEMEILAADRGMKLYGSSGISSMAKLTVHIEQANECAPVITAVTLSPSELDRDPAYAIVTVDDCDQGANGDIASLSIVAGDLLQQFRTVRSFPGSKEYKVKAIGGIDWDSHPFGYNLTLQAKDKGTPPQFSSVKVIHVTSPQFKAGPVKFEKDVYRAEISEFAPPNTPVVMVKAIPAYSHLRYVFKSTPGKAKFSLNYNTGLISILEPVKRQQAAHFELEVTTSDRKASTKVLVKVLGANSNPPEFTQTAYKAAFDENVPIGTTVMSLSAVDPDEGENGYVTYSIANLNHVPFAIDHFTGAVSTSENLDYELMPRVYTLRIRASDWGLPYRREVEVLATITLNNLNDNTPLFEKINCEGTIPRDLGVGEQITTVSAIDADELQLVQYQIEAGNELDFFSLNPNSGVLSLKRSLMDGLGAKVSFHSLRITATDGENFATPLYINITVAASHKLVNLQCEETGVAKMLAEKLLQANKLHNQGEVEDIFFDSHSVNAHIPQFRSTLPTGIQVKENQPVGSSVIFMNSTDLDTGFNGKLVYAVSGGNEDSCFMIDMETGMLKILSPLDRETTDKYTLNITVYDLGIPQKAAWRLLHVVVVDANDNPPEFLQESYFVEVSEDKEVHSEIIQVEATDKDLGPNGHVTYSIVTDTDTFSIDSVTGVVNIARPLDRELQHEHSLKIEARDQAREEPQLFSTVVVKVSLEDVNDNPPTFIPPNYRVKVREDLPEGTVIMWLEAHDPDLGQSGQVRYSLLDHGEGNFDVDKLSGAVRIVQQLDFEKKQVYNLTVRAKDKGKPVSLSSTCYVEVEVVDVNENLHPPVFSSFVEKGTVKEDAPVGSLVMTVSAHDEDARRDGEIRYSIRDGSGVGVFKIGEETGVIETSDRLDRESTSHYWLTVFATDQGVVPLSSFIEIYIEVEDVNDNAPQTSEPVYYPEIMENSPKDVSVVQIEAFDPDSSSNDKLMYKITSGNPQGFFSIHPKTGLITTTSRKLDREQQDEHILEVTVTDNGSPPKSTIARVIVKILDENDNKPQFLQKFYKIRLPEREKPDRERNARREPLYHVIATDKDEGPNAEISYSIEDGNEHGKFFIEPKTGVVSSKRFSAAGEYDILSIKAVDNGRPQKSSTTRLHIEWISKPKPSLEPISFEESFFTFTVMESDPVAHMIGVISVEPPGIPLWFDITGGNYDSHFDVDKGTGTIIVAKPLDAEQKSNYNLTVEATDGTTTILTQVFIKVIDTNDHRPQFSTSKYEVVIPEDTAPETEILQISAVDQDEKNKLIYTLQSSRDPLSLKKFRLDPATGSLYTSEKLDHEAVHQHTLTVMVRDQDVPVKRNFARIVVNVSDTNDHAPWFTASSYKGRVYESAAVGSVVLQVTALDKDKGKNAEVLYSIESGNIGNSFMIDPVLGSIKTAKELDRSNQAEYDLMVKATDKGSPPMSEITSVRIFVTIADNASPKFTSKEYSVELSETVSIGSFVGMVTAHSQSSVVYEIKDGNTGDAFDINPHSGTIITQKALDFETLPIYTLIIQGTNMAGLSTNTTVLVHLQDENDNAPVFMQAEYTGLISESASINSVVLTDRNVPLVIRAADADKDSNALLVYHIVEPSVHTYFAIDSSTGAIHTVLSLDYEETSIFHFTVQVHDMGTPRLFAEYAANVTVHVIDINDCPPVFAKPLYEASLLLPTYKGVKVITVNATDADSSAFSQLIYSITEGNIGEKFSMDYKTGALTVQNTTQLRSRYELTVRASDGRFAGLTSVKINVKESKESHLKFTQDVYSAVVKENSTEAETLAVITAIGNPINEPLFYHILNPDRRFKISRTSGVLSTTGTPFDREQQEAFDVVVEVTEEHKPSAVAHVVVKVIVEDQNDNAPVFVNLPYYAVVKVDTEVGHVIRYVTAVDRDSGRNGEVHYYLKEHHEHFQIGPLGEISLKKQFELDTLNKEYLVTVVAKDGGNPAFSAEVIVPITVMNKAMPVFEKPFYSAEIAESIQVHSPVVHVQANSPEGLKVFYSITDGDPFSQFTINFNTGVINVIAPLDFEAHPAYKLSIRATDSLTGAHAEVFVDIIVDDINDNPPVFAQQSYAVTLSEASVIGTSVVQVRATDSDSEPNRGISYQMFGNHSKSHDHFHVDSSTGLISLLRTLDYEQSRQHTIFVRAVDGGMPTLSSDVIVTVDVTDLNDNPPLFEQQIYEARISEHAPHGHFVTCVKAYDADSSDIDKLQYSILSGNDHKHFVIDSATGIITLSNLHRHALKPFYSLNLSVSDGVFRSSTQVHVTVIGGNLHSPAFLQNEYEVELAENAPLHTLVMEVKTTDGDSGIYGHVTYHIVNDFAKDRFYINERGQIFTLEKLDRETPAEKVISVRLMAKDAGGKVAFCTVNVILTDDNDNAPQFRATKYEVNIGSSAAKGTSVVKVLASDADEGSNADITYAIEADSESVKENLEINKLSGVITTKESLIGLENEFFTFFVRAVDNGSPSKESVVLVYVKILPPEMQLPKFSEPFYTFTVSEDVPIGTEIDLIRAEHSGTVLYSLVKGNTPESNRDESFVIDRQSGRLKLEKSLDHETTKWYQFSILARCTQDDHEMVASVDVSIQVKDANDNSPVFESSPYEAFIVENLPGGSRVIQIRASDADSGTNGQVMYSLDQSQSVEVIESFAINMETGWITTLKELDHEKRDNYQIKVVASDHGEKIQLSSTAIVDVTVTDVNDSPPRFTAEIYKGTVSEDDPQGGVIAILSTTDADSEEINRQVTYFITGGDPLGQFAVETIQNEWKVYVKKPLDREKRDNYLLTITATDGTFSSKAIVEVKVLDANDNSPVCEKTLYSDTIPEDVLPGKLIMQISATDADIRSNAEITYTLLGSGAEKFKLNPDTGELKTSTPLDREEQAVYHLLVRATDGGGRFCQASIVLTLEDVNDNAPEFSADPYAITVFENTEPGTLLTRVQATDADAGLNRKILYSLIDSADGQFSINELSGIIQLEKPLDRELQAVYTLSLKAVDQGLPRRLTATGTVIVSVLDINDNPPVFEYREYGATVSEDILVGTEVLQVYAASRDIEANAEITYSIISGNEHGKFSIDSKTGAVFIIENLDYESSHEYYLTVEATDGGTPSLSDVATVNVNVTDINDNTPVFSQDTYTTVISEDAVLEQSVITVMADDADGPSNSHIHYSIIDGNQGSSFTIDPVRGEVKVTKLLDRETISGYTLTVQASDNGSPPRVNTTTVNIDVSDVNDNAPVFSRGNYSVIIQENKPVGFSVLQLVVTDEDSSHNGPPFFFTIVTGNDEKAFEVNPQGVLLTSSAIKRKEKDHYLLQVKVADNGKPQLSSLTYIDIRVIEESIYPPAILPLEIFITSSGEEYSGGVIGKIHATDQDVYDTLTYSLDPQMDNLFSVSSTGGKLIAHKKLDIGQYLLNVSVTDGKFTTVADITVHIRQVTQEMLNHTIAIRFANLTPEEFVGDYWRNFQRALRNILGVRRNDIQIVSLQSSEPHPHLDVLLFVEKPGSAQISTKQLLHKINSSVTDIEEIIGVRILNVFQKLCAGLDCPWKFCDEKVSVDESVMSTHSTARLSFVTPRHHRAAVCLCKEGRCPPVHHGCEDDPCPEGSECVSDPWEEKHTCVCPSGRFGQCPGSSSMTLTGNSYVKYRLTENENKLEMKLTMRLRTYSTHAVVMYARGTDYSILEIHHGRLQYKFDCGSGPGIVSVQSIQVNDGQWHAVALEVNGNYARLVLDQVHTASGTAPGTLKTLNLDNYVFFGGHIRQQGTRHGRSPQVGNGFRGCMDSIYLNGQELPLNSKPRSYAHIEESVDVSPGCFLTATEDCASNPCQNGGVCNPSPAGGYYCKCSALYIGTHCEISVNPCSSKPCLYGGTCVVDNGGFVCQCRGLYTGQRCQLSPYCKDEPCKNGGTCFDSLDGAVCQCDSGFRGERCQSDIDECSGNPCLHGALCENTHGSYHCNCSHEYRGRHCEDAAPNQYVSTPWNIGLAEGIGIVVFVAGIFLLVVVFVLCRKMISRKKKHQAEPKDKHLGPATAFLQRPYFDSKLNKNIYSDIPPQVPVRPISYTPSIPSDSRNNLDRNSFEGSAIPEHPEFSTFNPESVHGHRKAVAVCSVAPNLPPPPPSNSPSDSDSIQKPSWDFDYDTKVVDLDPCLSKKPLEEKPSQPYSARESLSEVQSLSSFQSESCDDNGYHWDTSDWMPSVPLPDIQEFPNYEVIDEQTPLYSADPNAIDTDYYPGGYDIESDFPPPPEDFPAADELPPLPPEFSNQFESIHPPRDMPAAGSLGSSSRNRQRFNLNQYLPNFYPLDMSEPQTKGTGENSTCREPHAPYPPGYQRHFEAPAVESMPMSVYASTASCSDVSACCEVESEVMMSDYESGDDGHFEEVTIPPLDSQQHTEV

binding: binds
Substance: FAT Atypical Cadherin 1 (FAT1) (from UniProt Q14517 22-4588)
